From patent US20240228543A1, “CYCLIC PEPTIDE INHIBITORS OF USP22” (THE JOHNS HOPKINS UNIVERSITY, priority 2021, published 2024)
At least one peptide structure holds a part that was inferred or is arguable (an end, a ring closure or a residue). Some entries repeat one wording, which the source may state once for all of them. Positions of bridges follow the written chain, without caps; N, C: chain ends. Non-standard residues stand in square brackets, D forms with d. Residues, ends and D or L forms follow the SMILES beside them.

Chains of the proteins cited; added tags and fusions are not shown. Lines headed by an entry give the natural chain unless they say otherwise; changes in a name come on top. Residues count along the entry.
UniProt Q93009, 214-521 limits assumed: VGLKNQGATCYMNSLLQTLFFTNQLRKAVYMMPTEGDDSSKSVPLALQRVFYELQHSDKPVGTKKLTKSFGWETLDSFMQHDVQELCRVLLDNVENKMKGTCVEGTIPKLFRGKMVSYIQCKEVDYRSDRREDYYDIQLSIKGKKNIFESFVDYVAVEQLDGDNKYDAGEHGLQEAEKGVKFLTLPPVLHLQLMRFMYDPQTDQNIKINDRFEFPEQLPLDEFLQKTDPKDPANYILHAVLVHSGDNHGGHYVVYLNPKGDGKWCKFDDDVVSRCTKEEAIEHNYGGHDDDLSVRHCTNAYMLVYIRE
UniProt Q9UPT9: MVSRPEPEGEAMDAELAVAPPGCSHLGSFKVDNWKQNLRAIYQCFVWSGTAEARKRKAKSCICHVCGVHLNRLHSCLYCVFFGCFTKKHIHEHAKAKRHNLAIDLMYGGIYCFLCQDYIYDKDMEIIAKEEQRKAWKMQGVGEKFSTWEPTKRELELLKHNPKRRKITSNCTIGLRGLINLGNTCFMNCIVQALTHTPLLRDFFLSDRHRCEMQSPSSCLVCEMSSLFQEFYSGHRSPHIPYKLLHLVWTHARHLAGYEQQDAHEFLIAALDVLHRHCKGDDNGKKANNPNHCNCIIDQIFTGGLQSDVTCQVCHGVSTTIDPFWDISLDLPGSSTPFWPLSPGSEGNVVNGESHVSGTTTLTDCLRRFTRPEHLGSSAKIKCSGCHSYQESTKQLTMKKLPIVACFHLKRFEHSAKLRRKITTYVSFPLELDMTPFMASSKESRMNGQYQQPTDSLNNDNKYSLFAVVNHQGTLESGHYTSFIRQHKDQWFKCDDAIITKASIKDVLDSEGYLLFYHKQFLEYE

Assays:
[1] = target: T1, CYLD (Homo sapiens, UniProt Q9NQC7); experiment: End-point Ub-AMC cleavage by off-target DUB CYLD; assay type: biochemical; details: 1 μM hD1, 100 nM CYLD, 1 μM Ub-AMC
T1 sequence (Q9NQC7 1-956): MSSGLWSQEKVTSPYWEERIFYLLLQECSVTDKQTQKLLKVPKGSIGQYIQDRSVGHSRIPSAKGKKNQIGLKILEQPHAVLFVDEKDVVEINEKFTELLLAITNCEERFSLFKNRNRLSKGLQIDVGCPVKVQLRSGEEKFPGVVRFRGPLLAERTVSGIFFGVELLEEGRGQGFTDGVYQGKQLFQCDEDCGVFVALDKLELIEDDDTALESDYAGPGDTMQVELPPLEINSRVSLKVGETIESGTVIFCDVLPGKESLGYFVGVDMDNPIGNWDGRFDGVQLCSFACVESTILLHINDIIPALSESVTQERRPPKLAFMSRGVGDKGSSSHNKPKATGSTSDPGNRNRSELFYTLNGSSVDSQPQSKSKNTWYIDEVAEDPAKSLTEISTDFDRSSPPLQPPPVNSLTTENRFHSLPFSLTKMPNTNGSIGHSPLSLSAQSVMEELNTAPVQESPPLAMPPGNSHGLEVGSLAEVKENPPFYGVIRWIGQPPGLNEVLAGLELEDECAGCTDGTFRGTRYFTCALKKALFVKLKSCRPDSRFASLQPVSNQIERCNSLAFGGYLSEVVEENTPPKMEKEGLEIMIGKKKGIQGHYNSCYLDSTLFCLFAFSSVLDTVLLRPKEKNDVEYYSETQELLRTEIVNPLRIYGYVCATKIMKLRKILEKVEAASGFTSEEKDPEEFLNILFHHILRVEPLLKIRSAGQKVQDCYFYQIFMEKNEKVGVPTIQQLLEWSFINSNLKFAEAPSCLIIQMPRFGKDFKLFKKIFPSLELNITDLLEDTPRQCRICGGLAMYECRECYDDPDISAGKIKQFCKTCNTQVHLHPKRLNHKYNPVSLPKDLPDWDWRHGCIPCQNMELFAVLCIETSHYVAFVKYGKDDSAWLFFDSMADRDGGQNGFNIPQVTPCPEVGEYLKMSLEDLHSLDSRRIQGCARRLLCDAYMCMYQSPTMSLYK

[2] = target: T2, USP7 catalytic domain (USP7CD) (Homo sapiens, UniProt Q93009); experiment: End-point Ub-AMC cleavage by off-target DUB USP7CD; assay type: biochemical; details: 1 μM hD1, 100 nM USP7CD, 1 μM Ub-AMC
T2 construct: the USP7 catalytic domain (USP7CD)

[3] = target: human DUB module (hDUBm) on H2B-K120 ubiquitinated nucleosomes (Homo sapiens, UniProt Q9UPT9); experiment: Deubiquitination of nucleosomal H2B by hDUBm; details: 1 μM cyclic peptide, 200 nM hDUBm, 1 uM H2B-Ub nucleosome
[4] = tested on: panel of 44 human DUBs; experiment: DUBprofiler panel, ubiquitin-rhodamine(110)-glycine cleavage; assay type: biochemical; details: 1 μM hD1; all enzymes except USP27x

CC[C@H](C)[C@@H]1NC(=O)[C@H](C)NC(=O)[C@@H](Cc2ccc(O)cc2)NC(=O)CSC[C@@H](C(N)=O)NC(=O)[C@H](CC(C)C)NC(=O)[C@H](CC(C)C)NC(=O)[C@H]([C@@H](C)O)NC(=O)[C@H]([C@@H](C)O)NC(=O)[C@H](CCCCN)NC(=O)CNC(=O)[C@H](CCCNC(=N)N)NC(=O)[C@H](Cc2ccc(O)cc2)NC(=O)[C@H](CO)NC1=O [hD1] ({CH2CO}-[dY]AISYRGKTTLLC-NH2; thioether N-13)
effect on CYLD activity [1]: no effect | effect on USP7CD activity [2]: no effect | inhibition of nucleosomal H2B-Ub cleavage by hDUBm [3]: inhibit the enzymatic activity | effect on activity of panel DUBs [4]: did not significantly affect the activity
